Here are results for two substances from article PMC2939893.

By UniProt entry, the sequences of proteins in these tests, tags left out. Residues count along the entry.
UniProt Q9R171, residues 22-193: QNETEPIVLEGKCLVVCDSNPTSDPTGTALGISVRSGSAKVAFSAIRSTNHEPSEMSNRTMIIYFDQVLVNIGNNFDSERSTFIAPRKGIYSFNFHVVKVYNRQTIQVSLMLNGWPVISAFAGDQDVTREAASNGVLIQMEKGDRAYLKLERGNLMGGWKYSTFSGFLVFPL
UniProt Q8BME9, residues 25-198: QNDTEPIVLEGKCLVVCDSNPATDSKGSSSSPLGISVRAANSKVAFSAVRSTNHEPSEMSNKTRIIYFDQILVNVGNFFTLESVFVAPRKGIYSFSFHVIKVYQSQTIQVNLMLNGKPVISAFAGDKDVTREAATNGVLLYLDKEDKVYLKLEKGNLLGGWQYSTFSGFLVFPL
UniProt Q4ZJM7, residues 24-482: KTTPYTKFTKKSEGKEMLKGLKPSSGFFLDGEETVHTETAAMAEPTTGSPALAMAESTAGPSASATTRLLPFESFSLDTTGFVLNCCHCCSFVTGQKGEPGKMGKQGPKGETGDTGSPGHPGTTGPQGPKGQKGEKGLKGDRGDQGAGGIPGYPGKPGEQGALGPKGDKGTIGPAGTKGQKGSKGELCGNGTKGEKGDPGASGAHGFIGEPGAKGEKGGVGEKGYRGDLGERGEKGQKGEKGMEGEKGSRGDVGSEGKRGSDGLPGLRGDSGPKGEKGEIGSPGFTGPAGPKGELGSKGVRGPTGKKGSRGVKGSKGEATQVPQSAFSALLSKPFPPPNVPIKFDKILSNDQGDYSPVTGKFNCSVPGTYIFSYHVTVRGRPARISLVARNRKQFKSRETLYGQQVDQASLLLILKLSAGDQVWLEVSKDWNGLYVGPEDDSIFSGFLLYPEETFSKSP

In assay [1] the target is Cerebellin-1, epitope-tagged (mouse) (UniProt Q9R171). As to the kind of experiment: co-IP; as the co-IP from supernatants, in the presence of 5 mM EDTA; data not shown.
Assay [2] shares this target. Nature of the assay: co-IP + native gel or EMSA; otolin co-immunoprecipitated with FLAG-tagged Cbln1 or Oc90 from supernatants, eluted and run on a 4% Tris-Glycine native gel, immunoblot. Background: Mobility shift assays separate free from complexed probe on a gel.
In assay [3] the target is T1, CTRP3, epitope-tagged (mouse) (UniProt Q9ES30).
T1 sequence: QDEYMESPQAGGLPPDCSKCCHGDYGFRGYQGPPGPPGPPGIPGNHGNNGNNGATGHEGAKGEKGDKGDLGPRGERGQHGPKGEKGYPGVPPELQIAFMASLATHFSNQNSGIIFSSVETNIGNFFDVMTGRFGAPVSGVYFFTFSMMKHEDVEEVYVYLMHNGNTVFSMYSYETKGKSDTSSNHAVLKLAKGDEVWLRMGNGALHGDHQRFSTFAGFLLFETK
As to the kind of experiment: co-IP; supernatants of HEK293T cells co-expressing HA-tagged otolin and FLAG-tagged proteins; IP with anti-FLAG affinity gel in IP buffer (150 mM Tris-HCl pH 7.4, 150 mM NaCl, 1 mM EDTA, 1% Triton X-100), 4°C; immunoblot with anti-HA. On the technique in general: Immunoblotting shows a protein as a band on a membrane.

Assay [4] concerns the target Cerebellin-1, epitope-tagged (mouse) (UniProt Q9R171). The assay is described as above.
The target of assay [5] is Cerebellin-4, epitope-tagged (mouse) (UniProt Q8BME9). The description is as above.
Assay [6] has as its target endogenous Otolin from P0 mouse inner ear (mouse (endogenous in P0 mouse inner ear)) (UniProt Q4ZJM7). Nature of the assay: native gel or EMSA; P0 mouse inner ear ground to powder, resuspended in native sample buffer, 4% Tris-Glycine native gel; immunoblot with anti-otolin antibody.
Assay [7] shares this target. As to the kind of experiment: non-reducing SDS-PAGE; ground-up P0 mouse inner ear in LDS sample buffer with or without β-mercaptoethanol, 90°C 10 min, 4-12% Bis-Tris gel; immunoblot with anti-otolin antibody.

Results are given in words; binding and its absence hold for the method and conditions named. For some of these results: In cells and extracts the contact can be indirect. Some results given as binding are weak or reduced against the parent protein; the word gives no strength. For some of these results: Tags and fused reporters may be left off the sequences shown.

As to “C-terminal HA-tagged Otolin (from UniProt Q4ZJM7 24-482)”, the binding entry in assay [1] is “binds”; in assay [2], “binds”; in assay [3] it was “binds weakly”; in assay [4] it was “binds”; in assay [5], “binds weakly”.
Regarding “endogenous Otolin from P0 mouse inner ear (from UniProt Q4ZJM7 24-482)”, the binding result in assay [6] and in assay [7] was “binds” in each case.
